Results from patent US6723858B2, “Estrogenic compounds as anti-mitotic agents” (The Children's Medical Center Corporation, priority 1993, dated 2004).

System: tubulin
Assay: inhibition of [3H]colchicine binding to tubulin
Conditions: 100 μM inhibitor, 1.0 μM tubulin, 2 μM [3H]colchicine, 5% DMSO, 10 min at 37° C.

- Percent inhibition ± S.D. of colchicine binding to tubulin: 30 ± 4%
SMILES: CC/C(=C(/CC)c1ccc(O)cc1)c1ccc(O)cc1 [Diethylstilbestrol, reference compound]
